{
  "source": "the supplement of paper PMC4604168 (melanoma cell lines)",
  "note": "The other results are listed elsewhere or left out. Single values are uncertain, as repeats are few or missing.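 Imaging used 1,536-well plates; nuclei positive for cleaved PARP by antibody were divided by total DNA-stained nuclei to yield the apoptosis fraction. Doses for screening kept most cells viable, and cell lines differ markedly in resting and induced cleaved-PARP levels.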",
  "data": [
    {"test_system": "CBRC013 (line from a melanoma biopsy)", "assay": "cleaved PARP positive nuclei fraction relative to DMSO control; higher = more apoptosis", "conditions": "library dose: low library concentration; 72 h", "units": {"cleaved PARP positive nuclei fraction": "%"}, "values": [
      {"compound": "C[C@]1(O)C[C@@H](c2nc(-c3ccc4ccc(-c5ccccc5)nc4c3)c3c(N)nccn32)C1", "note": "+ C[C@@H]1CCN(C(=O)CC#N)C[C@@H]1N(C)c1ncnc2[nH]ccc12 [CP690550] (first compound 0.4 µM, partner dose 1 µM)", "cleaved PARP positive nuclei fraction": 144},
      {"compound": "Cn1sc(=O)n(Cc2ccccc2)c1=O", "note": "+ NCC(=O)Nc1ccc(-n2nc(C(F)(F)F)cc2-c2ccc3c(ccc4ccccc43)c2)cc1 [OSU03012] (first compound 0.4 µM, partner dose 1 µM)", "cleaved PARP positive nuclei fraction": 168},
      {"compound": "CCCCCCCCc1ccc(CCC(N)(CO)CO)cc1", "note": "[fingolimod] + O=C(CCCCCCC(=O)Nc1ccccc1)NO [vorinostat] (first compound 2 µM, partner dose 0.08 µM)", "cleaved PARP positive nuclei fraction": 85.2},
      {"compound": "CCCCCCCCc1ccc(CCC(N)(CO)CO)cc1", "note": "[fingolimod] + Cc1ccc(NC(=O)c2cccc(N(C)C)c2)cc1NC(=O)c1ccc(O)cc1 [ZM336372] (first compound 2 µM, partner dose 2 µM)", "cleaved PARP positive nuclei fraction": 77.5},
      {"compound": "CCN(CC)CCNC(=O)c1c(C)[nH]c(/C=C2\\C(=O)Nc3ccc(F)cc32)c1C", "note": "[sunitinib] + CC1(C)NC(=O)N(c2ccc([N+](=O)[O-])c(C(F)(F)F)c2)C1=O [nilutamide] (first compound 0.4 µM, partner dose 1 µM)", "cleaved PARP positive nuclei fraction": 245},
      {"compound": "CN(c1ncccc1CNc1nc(Nc2ccc3c(c2)CC(=O)N3)ncc1C(F)(F)F)S(C)(=O)=O", "note": "+ COc1cc2c(Oc3ccc4[nH]c(C)cc4c3F)ncnc2cc1OCCCN1CCCC1 [cediranib] (first compound 0.08 µM, partner dose 0.4 µM)", "cleaved PARP positive nuclei fraction": 101},
      {"compound": "CC1(C)CCC(c2ccc(Cl)cc2)=C(CN2CCN(c3ccc(C(=O)NS(=O)(=O)c4ccc(N[C@H](CCN5CCOCC5)CSc5ccccc5)c(S(=O)(=O)C(F)(F)F)c4)cc3)CC2)C1", "note": "+ O=C(Nc1cccc(Cl)c1)Nc1ncc(CCNc2ncnc3ccsc23)s1 [SNS314] (first compound 0.4 µM, partner dose 0.0008 µM)", "cleaved PARP positive nuclei fraction": 161},
      {"compound": "NC1(c2ccc(-c3nc4ccn5c(=O)[nH]nc5c4cc3-c3ccccc3)cc2)CCC1", "note": "+ Cc1cc(N2CCOCC2)cc2[nH]c(-c3c(NC[C@@H](O)c4cccc(Cl)c4)cc[nH]c3=O)nc12 [BMS536924] (first compound 0.4 µM, partner dose 0.2 µM)", "cleaved PARP positive nuclei fraction": 123},
      {"compound": "CS(=O)(=O)c1ccc(C(=O)Nc2ccc(Cl)c(-c3ccccn3)c2)c(Cl)c1", "note": "[vismodegib] + CN(NC(=O)CC(=O)NN(C)C(=S)c1ccccc1)C(=S)c1ccccc1 [STA4783] (first compound 1 µM, partner dose 0.006 µM)", "cleaved PARP positive nuclei fraction": 181},
      {"compound": "CCCCCCCCc1ccc(CCC(N)(CO)CO)cc1", "note": "[fingolimod] + CC(C)(C)c1cnc(CSc2cnc(NC(=O)C3CCNCC3)s2)o1 [SNS-032] (first compound 2 µM, partner dose 0.01 µM)", "cleaved PARP positive nuclei fraction": 126},
      {"compound": "NC1(c2ccc(-c3nc4ccn5c(=O)[nH]nc5c4cc3-c3ccccc3)cc2)CCC1", "note": "+ CO[C@@H]1[C@H](N(C)C(=O)c2ccccc2)C[C@H]2O[C@]1(C)n1c3ccccc3c3c4c(c5c6ccccc6n2c5c31)C(=O)NC4 [Midostaurin] (first compound 0.4 µM, partner dose 0.08 µM)", "cleaved PARP positive nuclei fraction": 104},
      {"compound": "CN(c1ncccc1CNc1nc(Nc2ccc3c(c2)CC(=O)N3)ncc1C(F)(F)F)S(C)(=O)=O", "note": "+ CO[C@@H]1[C@H](N(C)C(=O)c2ccccc2)C[C@H]2O[C@]1(C)n1c3ccccc3c3c4c(c5c6ccccc6n2c5c31)C(=O)NC4 [Midostaurin] (first compound 0.08 µM, partner dose 0.08 µM)", "cleaved PARP positive nuclei fraction": 151},
      {"compound": "Cn1cnc2c(F)c(Nc3ccc(Br)cc3Cl)c(C(=O)NOCCO)cc21", "note": "[selumetinib] + OCCn1cc(-c2cnc3nnn(Cc4ccc5ncccc5c4)c3n2)cn1 [PF04217903] (first compound 0.015 µM, partner dose 1 µM)", "cleaved PARP positive nuclei fraction": 126}
    ]},
    {"test_system": "CBRC014 (line from a melanoma biopsy)", "assay": "cleaved PARP positive nuclei fraction relative to DMSO control; melanoma cells; higher = more apoptosis", "conditions": "library dose: low library concentration; 72 h", "units": {"cleaved PARP positive nuclei fraction": "%"}, "values": [
      {"compound": "C[C@]1(O)C[C@@H](c2nc(-c3ccc4ccc(-c5ccccc5)nc4c3)c3c(N)nccn32)C1", "note": "+ C[C@@H]1CCN(C(=O)CC#N)C[C@@H]1N(C)c1ncnc2[nH]ccc12 [CP690550] (first compound 0.4 µM, partner dose 1 µM)", "cleaved PARP positive nuclei fraction": 86.2},
      {"compound": "Cn1sc(=O)n(Cc2ccccc2)c1=O", "note": "+ NCC(=O)Nc1ccc(-n2nc(C(F)(F)F)cc2-c2ccc3c(ccc4ccccc43)c2)cc1 [OSU03012] (first compound 0.4 µM, partner dose 1 µM)", "cleaved PARP positive nuclei fraction": 82.3},
      {"compound": "Cn1sc(=O)n(Cc2ccccc2)c1=O", "note": "+ COc1cc2ncnc(Nc3ccc(Oc4ccccc4)cc3)c2cc1OC [SrcI1] (first compound 0.4 µM, partner dose 2 µM)", "cleaved PARP positive nuclei fraction": 107},
      {"compound": "Cn1cnc2c(F)c(Nc3ccc(Br)cc3Cl)c(C(=O)NOCCO)cc21", "note": "[selumetinib] + Oc1nc(-c2ccc(C(F)(F)F)cc2)nc2c1CSCC2 [XAV939] (first compound 0.015 µM, partner dose 2 µM)", "cleaved PARP positive nuclei fraction": 96},
      {"compound": "CCCCCCCCc1ccc(CCC(N)(CO)CO)cc1", "note": "[fingolimod] + O=C(CCCCCCC(=O)Nc1ccccc1)NO [vorinostat] (first compound 2 µM, partner dose 0.08 µM)", "cleaved PARP positive nuclei fraction": 77.6},
      {"compound": "NC1(c2ccc(-c3nc4ccn5c(=O)[nH]nc5c4cc3-c3ccccc3)cc2)CCC1", "note": "+ COc1cc2ncnc(Nc3ccc(Oc4ccccc4)cc3)c2cc1OC [SrcI1] (first compound 0.4 µM, partner dose 2 µM)", "cleaved PARP positive nuclei fraction": 40.7},
      {"compound": "CCCCCCCCc1ccc(CCC(N)(CO)CO)cc1", "note": "[fingolimod] + Cc1ccc(NC(=O)c2cccc(N(C)C)c2)cc1NC(=O)c1ccc(O)cc1 [ZM336372] (first compound 2 µM, partner dose 2 µM)", "cleaved PARP positive nuclei fraction": 106},
      {"compound": "Cn1sc(=O)n(Cc2ccccc2)c1=O", "note": "+ Cn1cc(/C=C2\\C(=O)Nc3cccnc32)c2ccccc21 [GW441756] (first compound 0.4 µM, partner dose 0.4 µM)", "cleaved PARP positive nuclei fraction": 188},
      {"compound": "CCN(CC)CCNC(=O)c1c(C)[nH]c(/C=C2\\C(=O)Nc3ccc(F)cc32)c1C", "note": "[sunitinib] + CC1(C)NC(=O)N(c2ccc([N+](=O)[O-])c(C(F)(F)F)c2)C1=O [nilutamide] (first compound 0.4 µM, partner dose 1 µM)", "cleaved PARP positive nuclei fraction": 85.8},
      {"compound": "CN(c1ncccc1CNc1nc(Nc2ccc3c(c2)CC(=O)N3)ncc1C(F)(F)F)S(C)(=O)=O", "note": "+ COc1cc2c(Oc3ccc4[nH]c(C)cc4c3F)ncnc2cc1OCCCN1CCCC1 [cediranib] (first compound 0.08 µM, partner dose 0.4 µM)", "cleaved PARP positive nuclei fraction": 98.8},
      {"compound": "C[C@@H](N)c1ccc(C(=O)Nc2ccnc3[nH]ccc23)cc1", "note": "+ COc1cc2ncnc(Nc3ccc(Oc4ccccc4)cc3)c2cc1OC [SrcI1] (first compound 0.4 µM, partner dose 2 µM)", "cleaved PARP positive nuclei fraction": 99.8},
      {"compound": "CCCCCCCCc1ccc(CCC(N)(CO)CO)cc1", "note": "[fingolimod] + Oc1cc(-c2nc(-c3ccccc3)[nH]c2-c2ccncc2)ccc1Cl [L779450] (first compound 2 µM, partner dose 0.2 µM)", "cleaved PARP positive nuclei fraction": 92.9},
      {"compound": "C[C@@H](N)c1ccc(C(=O)Nc2ccnc3[nH]ccc23)cc1", "note": "+ O=S(=O)(c1ccccc1)N(CC(F)(F)F)c1ccc(C(O)(C(F)(F)F)C(F)(F)F)cc1 [T0901317] (first compound 0.4 µM, partner dose 1.4 µM)", "cleaved PARP positive nuclei fraction": 145},
      {"compound": "CN(c1ncccc1CNc1nc(Nc2ccc3c(c2)CC(=O)N3)ncc1C(F)(F)F)S(C)(=O)=O", "note": "+ O=c1cc(-c2cccc3c2Sc2ccccc2S3)oc(N2CCOCC2)c1 [KU55933] (first compound 0.08 µM, partner dose 1 µM)", "cleaved PARP positive nuclei fraction": 79.8},
      {"compound": "C[C@]1(O)C[C@@H](c2nc(-c3ccc4ccc(-c5ccccc5)nc4c3)c3c(N)nccn32)C1", "note": "+ CCc1ccc(CCOc2ccc(CC3SC(=O)NC3=O)cc2)nc1 [pioglitazone] (first compound 0.4 µM, partner dose 2 µM)", "cleaved PARP positive nuclei fraction": 111},
      {"compound": "C[C@]1(O)C[C@@H](c2nc(-c3ccc4ccc(-c5ccccc5)nc4c3)c3c(N)nccn32)C1", "note": "+ COc1ccc2c(c1)CCC1C2CCC2(C)C(NCCCCCCN3C(=O)C=CC3=O)CCC12 [U73122] (first compound 0.4 µM, partner dose 0.4 µM)", "cleaved PARP positive nuclei fraction": 278},
      {"compound": "C[C@]1(O)C[C@@H](c2nc(-c3ccc4ccc(-c5ccccc5)nc4c3)c3c(N)nccn32)C1", "note": "+ O=C1NC(=O)/C(=C/c2ccc(-c3ccc(F)cc3O)o2)S1 [AS252424] (first compound 0.4 µM, partner dose 1 µM)", "cleaved PARP positive nuclei fraction": 86.5},
      {"compound": "CC1(C)CCC(c2ccc(Cl)cc2)=C(CN2CCN(c3ccc(C(=O)NS(=O)(=O)c4ccc(N[C@H](CCN5CCOCC5)CSc5ccccc5)c(S(=O)(=O)C(F)(F)F)c4)cc3)CC2)C1", "note": "+ O=C(Nc1cccc(Cl)c1)Nc1ncc(CCNc2ncnc3ccsc23)s1 [SNS314] (first compound 0.4 µM, partner dose 0.0008 µM)", "cleaved PARP positive nuclei fraction": 435},
      {"compound": "C[C@]1(O)C[C@@H](c2nc(-c3ccc4ccc(-c5ccccc5)nc4c3)c3c(N)nccn32)C1", "note": "+ O=C(Nc1ccccc1)c1cc([N+](=O)[O-])ccc1Cl [GW9662] (first compound 0.4 µM, partner dose 2 µM)", "cleaved PARP positive nuclei fraction": 117},
      {"compound": "NC1(c2ccc(-c3nc4ccn5c(=O)[nH]nc5c4cc3-c3ccccc3)cc2)CCC1", "note": "+ Cc1cc(N2CCOCC2)cc2[nH]c(-c3c(NC[C@@H](O)c4cccc(Cl)c4)cc[nH]c3=O)nc12 [BMS536924] (first compound 0.4 µM, partner dose 0.2 µM)", "cleaved PARP positive nuclei fraction": 83.6}
    ]}
  ]
}
